{"source": "PubChem BioAssay AID504744 (Drosophila RNAi Screening Center, 2011)", "screen": "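Identify dsRNAs that increase or decrease phospho-dAkt after insulin treatment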 (primary screen)", "system": "Drosophila Kc167 cells", "knock-down reagent": "long dsRNA against Drosophila genes, 250 ng dsRNA per well of a 384-well plate", "duration": "3 days of knock-down, then overnight serum-free starvation before stimulation", "treatment": "bovine insulin at 387 nM for 10 minutes after 12 h without serum", "measured": "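Per-well phospho-dAkt level from an in-cell fluorescent antibody stain, divided by a DNA-dye signal; log2 residuals turned into z-scores that take cell number into account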", "hit rule": "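Under insulin, a gene counts as a hit if the average z-score of two replicates lies above 2.5 or below -2.5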", "note": "The screen tested about 23,000 reagents; below is a random part of those with a known target gene and a result. Over the whole deposit, 98 (0.43%) were called active. 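Only hit calls are given; the phospho-dAkt signals, z-scores and hit direction were not deposited.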"}
{"target": "uno", "DRSC id": "DRSC07244", "Outcome": "inactive"}
{"target": "wit", "DRSC id": "DRSC08741", "Outcome": "inactive"}
{"target": "CG14270", "DRSC id": "DRSC17913", "Outcome": "inactive"}
{"target": "alph", "DRSC id": "DRSC15398", "Outcome": "inactive"}
{"target": "prim", "DRSC id": "DRSC06575", "Outcome": "inactive"}
{"target": "lncRNA:CR30055", "DRSC id": "DRSC22439", "Outcome": "inactive"}
{"target": "Osi7", "DRSC id": "DRSC12176", "Outcome": "inactive"}
{"target": "CG13081", "DRSC id": "DRSC02185", "Outcome": "inactive"}
{"target": "CG6044", "DRSC id": "DRSC04522", "Outcome": "inactive"}
{"target": "Alg1", "DRSC id": "DRSC15297", "Outcome": "inactive"}
{"target": "CG12576", "DRSC id": "DRSC20621", "Outcome": "inactive"}
{"target": "GluRIA", "DRSC id": "DRSC11176", "Outcome": "inactive"}
{"target": "CG14082", "DRSC id": "DRSC10086", "Outcome": "inactive"}
{"target": "CG15097", "DRSC id": "DRSC06526", "Outcome": "inactive"}
{"target": "CG15143", "DRSC id": "DRSC02444", "Outcome": "inactive"}
{"target": "Dci", "DRSC id": "DRSC08360", "Outcome": "inactive"}
{"target": "Tsen34", "DRSC id": "DRSC22932", "Outcome": "inactive"}
{"target": "CG13409", "DRSC id": "DRSC14585", "Outcome": "inactive"}
{"target": "RanBP3", "DRSC id": "DRSC14217", "Outcome": "inactive"}
{"target": "CG8176", "DRSC id": "DRSC16394", "Outcome": "inactive"}
{"target": "CG8891", "DRSC id": "DRSC03120", "Outcome": "inactive"}
{"target": "CG18764", "DRSC id": "DRSC15391", "Outcome": "inactive"}
{"target": "CG7768", "DRSC id": "DRSC10914", "Outcome": "inactive"}
{"target": "CG10588", "DRSC id": "DRSC11628", "Outcome": "inactive"}
{"target": "Capa", "DRSC id": "DRSC15058", "Outcome": "inactive"}
{"target": "mthl3", "DRSC id": "DRSC06997", "Outcome": "inactive"}
{"target": "Adgf-A", "DRSC id": "DRSC10566", "Outcome": "inactive"}
{"target": "jumu", "DRSC id": "DRSC16651", "Outcome": "inactive"}
{"target": "CG8526", "DRSC id": "DRSC16438", "Outcome": "inactive"}
{"target": "prd", "DRSC id": "DRSC03597", "Outcome": "inactive"}
{"target": "Nmdar2", "DRSC id": "DRSC18183", "Outcome": "inactive"}
{"target": "Nmdar2", "DRSC id": "DRSC18511", "Outcome": "inactive"}
{"target": "Nmdar2", "DRSC id": "DRSC18569", "Outcome": "inactive"}
{"target": "CDK2AP1", "DRSC id": "DRSC19800", "Outcome": "inactive"}
{"target": "CG10561", "DRSC id": "DRSC02068", "Outcome": "inactive"}
{"target": "side-II", "DRSC id": "DRSC01427", "Outcome": "inactive"}
{"target": "side-II", "DRSC id": "DRSC01429", "Outcome": "inactive"}
{"target": "side-II", "DRSC id": "DRSC01913", "Outcome": "inactive"}
{"target": "side-II", "DRSC id": "DRSC01932", "Outcome": "inactive"}
{"target": "side-II", "DRSC id": "DRSC02480", "Outcome": "inactive"}
{"target": "side-II", "DRSC id": "DRSC22508", "Outcome": "inactive"}
{"target": "Polr2H", "DRSC id": "DRSC11642", "Outcome": "inactive"}
{"target": "Neos", "DRSC id": "DRSC11235", "Outcome": "inactive"}
{"target": "CG8329", "DRSC id": "DRSC10978", "Outcome": "inactive"}
{"target": "Marcal1", "DRSC id": "DRSC02718", "Outcome": "inactive"}
{"target": "nmd", "DRSC id": "DRSC02856", "Outcome": "inactive"}
{"target": "Dnaaf4", "DRSC id": "DRSC02405", "Outcome": "inactive"}
{"target": "RtGEF", "DRSC id": "DRSC03604", "Outcome": "inactive"}
{"target": "RtGEF", "DRSC id": "DRSC22207", "Outcome": "inactive"}
{"target": "Sgt", "DRSC id": "DRSC02812", "Outcome": "inactive"}
{"target": "CG15803", "DRSC id": "DRSC15121", "Outcome": "inactive"}
{"target": "egr", "DRSC id": "DRSC06233", "Outcome": "inactive"}
{"target": "CG13445", "DRSC id": "DRSC09992", "Outcome": "inactive"}
{"target": "Ciao1", "DRSC id": "DRSC06170", "Outcome": "inactive"}
{"target": "GstE13", "DRSC id": "DRSC06083", "Outcome": "inactive"}
{"target": "CG42591", "DRSC id": "DRSC08905", "Outcome": "inactive"}
{"target": "CG2955", "DRSC id": "DRSC00552", "Outcome": "inactive"}

3 entries from above, reformatted:
target,DRSC id,Outcome
Neos,DRSC11235,inactive
CG8329,DRSC10978,inactive
Marcal1,DRSC02718,inactive
